In patent publication US20230131111A1, “BIODEGRADABLE POLYIMIDAZOLIUMS AND OLIGOIMIDAZOLIUMS” (Nanyang Technological University, priority 2020, published 2023):
For at least one compound, name, drawing or mass did not settle the structure.

Legend:
P. aeruginosa PAER = assay: Skin wound infection model; type: in vivo, C57B/6 mice; conditions: imipenem 5 mg/kg, 24 h
P. aeruginosa PAO1 = assay: Murine septicemia model; type: in vivo, BALB/c mice; conditions: 7 days of monitoring
MDR P. aeruginosa PAER = assay: Murine septicemia model; type: in vivo, BALB/c mice; conditions: single dose 15 mg/kg 2 h post-infection

Structure (SMILES): C[C@@H](O)[C@H]1C(=O)N2C(C(=O)O)=C(SCCN=CN)C[C@H]12 [Imp, Imipenem]
- P. aeruginosa numbers in wound (P. aeruginosa PAER): increased in numbers
- survival (P. aeruginosa PAO1): survived
- survival (MDR P. aeruginosa PAER): zero
